Source: patent publication US20200407452A1 (published 2020)
Substitutions are numbered along the chain they refer to. Results are given in words; binding and its absence hold for the method and conditions named. Some results given as binding are weak or reduced against the parent protein; the word gives no strength.

Sequences of proteins named here, by UniProt entry; tags and fusion partners are left off. A change or cut given only in a name is not applied to a line headed by its entry. Residues count along the entry.
UniProt P08581: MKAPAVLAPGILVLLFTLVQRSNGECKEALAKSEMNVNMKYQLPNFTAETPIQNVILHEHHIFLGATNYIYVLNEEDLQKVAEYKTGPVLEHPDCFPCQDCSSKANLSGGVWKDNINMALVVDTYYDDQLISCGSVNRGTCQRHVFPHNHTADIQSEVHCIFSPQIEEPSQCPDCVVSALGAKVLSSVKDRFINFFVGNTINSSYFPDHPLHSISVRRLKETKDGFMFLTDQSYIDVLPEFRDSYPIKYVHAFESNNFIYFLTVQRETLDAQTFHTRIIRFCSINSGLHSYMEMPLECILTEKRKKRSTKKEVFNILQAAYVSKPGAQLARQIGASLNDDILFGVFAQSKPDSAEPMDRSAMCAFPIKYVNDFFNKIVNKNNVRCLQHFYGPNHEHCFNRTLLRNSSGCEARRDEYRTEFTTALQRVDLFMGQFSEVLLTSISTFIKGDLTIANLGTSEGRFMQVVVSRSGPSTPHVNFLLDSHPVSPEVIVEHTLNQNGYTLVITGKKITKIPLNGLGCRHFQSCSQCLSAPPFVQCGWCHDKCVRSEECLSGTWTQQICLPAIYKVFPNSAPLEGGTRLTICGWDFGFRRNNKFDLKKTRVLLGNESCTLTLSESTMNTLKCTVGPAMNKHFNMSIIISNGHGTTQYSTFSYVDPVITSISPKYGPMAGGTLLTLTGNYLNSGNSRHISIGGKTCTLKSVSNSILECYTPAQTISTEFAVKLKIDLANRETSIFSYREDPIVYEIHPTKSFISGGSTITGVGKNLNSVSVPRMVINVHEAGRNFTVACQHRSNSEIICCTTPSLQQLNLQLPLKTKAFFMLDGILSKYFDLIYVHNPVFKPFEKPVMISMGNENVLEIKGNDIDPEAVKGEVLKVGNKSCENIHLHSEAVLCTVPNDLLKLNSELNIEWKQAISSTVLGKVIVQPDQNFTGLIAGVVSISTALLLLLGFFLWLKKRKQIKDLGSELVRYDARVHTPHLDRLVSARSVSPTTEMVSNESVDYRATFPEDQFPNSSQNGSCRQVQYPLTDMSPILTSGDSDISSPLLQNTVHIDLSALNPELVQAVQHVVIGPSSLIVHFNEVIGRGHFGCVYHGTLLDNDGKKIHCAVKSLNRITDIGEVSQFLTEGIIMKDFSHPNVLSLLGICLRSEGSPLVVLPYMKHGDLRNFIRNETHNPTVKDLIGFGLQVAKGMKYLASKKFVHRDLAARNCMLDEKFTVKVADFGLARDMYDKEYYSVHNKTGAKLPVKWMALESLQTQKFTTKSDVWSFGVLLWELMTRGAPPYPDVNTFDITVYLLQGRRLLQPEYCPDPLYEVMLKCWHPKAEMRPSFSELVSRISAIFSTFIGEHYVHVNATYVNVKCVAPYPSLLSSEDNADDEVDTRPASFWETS
SEMA-PSI-IPT 1-2 (MET ECD lacking IPT domains 3 and 4): residues 25-741 of P08581
SEMA-PSI (MET ECD lacking IPT domains 1-4): residues 25-562 of P08581
isolated SEMA domain of human MET: residues 27-515 of P08581

B1: 72F8 chimeric llama-human IgG1 mAb (antibody, V domains shown)
VH: ELQLVESGGGLVQPGGSLRLSCAASGFTFSNYVMSWVRQAPGKGLEWVSDTNSGGSTSYADSVKGRFTISRDNAKNTLYLQMNSLKPEDTALYYCARSFFYGMNYWGKGTQVTVSS
VL: QSALTQPPSLSASPGSSVRLTCTLSSGNNIGSYDISWYQQKAGSPPRYLLNYYTDSRKHQDSGVPSRFSGSKDASANAGLLLISGLQPEDEADYYCSAYKSGSYRWVFGGGTHVTVL
notes: human IgG1 CH1-CH2-CH3 and human CL lambda
B2: 71D6 chimeric llama-human IgG1 mAb (antibody, V domains shown)
VH: ELQLVESGGGLVQPGGSLRLSCAASGFTFSSYGMSWVRQAPGKGLEWVSAINSYGGSTSYADSVKGRFTISRDNAKNTLYLQMNSLKPEDTAVYYCAKEVRADLSRYNDYESYDYWGQGTQVTVSS
VL: QPVLNQPSALSVTLGQTAKITCQGGSLGARYAHWYQQKPGQAPVLVIYDDDSRPSGIPERFSGSSSGGTATLTISGAQAEDEGDYYCQSADSSGSVFGGGTHLTVL
notes: human IgG1 CH1-CH2-CH3 and human CL lambda; also called 71D6 Human IgG1/lambda
B3: 71C3 chimeric llama-human IgG1 mAb (antibody, V domains shown)
VH: B2 VH with E1Q, Y32H, G33A, Y54G, V100L, A102F, S105A, N108T, S112A, Y113W
VL: SYELTQPSALSVTLGQTAKITCQGGSLGSSYAHWYQQKPGQAPVLVIYDDDSRPSGIPERFSGSSSGGTATLTISGAQAEDEGDYYCQSADSSGNAAVFGGGTHLTVL
notes: as for B1
B4: 71D4 chimeric llama-human IgG1 mAb (antibody, V domains shown)
VH: B2 VH with S31G, A50D, Y54G, E99D, V100M, A102L, D103Y, S105A, S112A, Y113W
VL: B3 VL with Y2S, E3A
notes: as for B1
B5: 71G2 chimeric llama-human IgG1 mAb (antibody, V domains shown)
VH: EVQLQESGGGLVQPGGSLRLSCAASGFTFSIYDMSWVRQAPGKGLEWVSTINSDGSSTSYVDSVKGRFTISRDNAKNTLYLQMNSLKPEDTAVYYCAKVYGSTWDVGPMGYGMDYWGKGTLVTVSS
VL: SSALTQPSALSVSLGQTARITCQGGSLGSSYAHWYQQKPGQAPVLVIYGDDSRPSGIPERFSGSSSGGTATLTISGAQAEDEDDYYCQSTDSSGNTVFGGGTRLTVL
notes: human IgG1 CH1-CH2-CH3 and human CL lambda; also called 71G2 Human IgG1/lambda
B6: 71G3 chimeric llama-human IgG1 mAb (antibody, V domains shown)
VH: QVQLVESGGGLVQPGGSLRVSCAASGFTFSTYYMSWVRQAPGKGLEWVSDIRTDGGTYYADSVKGRFTMSRDNAKNTLYLQMNSLKPEDTALYYCARTRIFPSGYDYWGQGTQVTVSS
VL: QAVVTQEPSLSVSPGGTVTLTCGLSSGSVTTSNYPGWFQQTPGQAPRTLIYNTNSRHSGVPSRFSGSISGNKAALTIMGAQPEDEADYYCSLYPGSTTVFGGGTHLTVL
notes: human IgG1 CH1-CH2-CH3 and human CL lambda; also called 71G3 Human IgG1/lambda
B7: 71G12 chimeric llama-human IgG1 mAb (antibody, V domains shown)
VH: QVQLQESGGDLVQPGGSLRVSCVVSGFTFSRYYMSWVRQAPGKGLEWVSSIDSYGYSTYYTDSVKGRFTISRDNAKNTLYLQMNSLKPEDTALYYCARAKTTWSYDYWGQGTQVTVSS
VL: EIVLTQSPSSVTASVGGKVTINCKSSQSVFIASNQKTYLNWYQQRPGQSPRLVISYASTRESGIPDRFSGSGSTTDFTLTISSVQPEDAAVYYCQQAYSHPTFGQGTKVELK
notes: human IgG1 CH1-CH2-CH3 and human CL kappa
B8: 71A3 chimeric llama-human IgG1 mAb (antibody, V domains shown)
VH: EVQLVESGGGLVQPGGSLRLSCAASGFSFKDYDITWVRQAPGKGLEWVSTITSRSGSTSYVDSVKGRFTISGDNAKNTLYLQMNSLKPEDTAVYYCAKVYATTWDVGPLGYGMDYWGKGTLVTVSS
VL: B3 VL
notes: as for B1
B9: 76H10 chimeric llama-human IgG1 mAb (antibody, V domains shown)
VH: QLQLVESGGGLVQPGGSLRVSCTASGFTFNTYYMTWVRQAPGKGLEWVSDINSGGGTYYADSVKGRFTISRDNAKNTLYLQMNSLKPEDTALYYCVRVRIWPVGYDYWGQGTQVTVSS
VL: QAVVTQEPSLSVSPGGTVTLTCGLSSGSVTTSNYPGWFQQTPGQAPRTLIYNTNNRHSGVPSRFSGSISGNKAALTITGAQPEDEADYYCSLYTGSYTTVFGGGTHLTVL
notes: as for B1
B10: 74C8 chimeric llama-human IgG1 mAb (antibody, V domains shown)
VH: EVQLVESGGGLVQPGGSLRLSCAASGFTFRNYHMSWVRQVPGKGFEWISDINSAGGSTYYADSVKGRFTISRDNAKNTLYLEMNSLKPEDTALYYCARVNVWGVNYWGKGTLVSVSS
VL: B9 VL with A2T, N55S, T94P, T99N
notes: as for B1
B11: 76G7 chimeric llama-human IgG1 mAb (antibody, V domains shown)
VH: QVQLVESGGNLVQPGGSLRLSCAASGFTFSNYYMSWVRQAPGKGLEWVSDIYSDGSTTWYSDSVKGRFTISRDNAKNTLSLQMNSLKSEDTAVYYCARVKIYPGGYDAWGQGTQVTVSS
VL: QAGLTQPPSVSGSPGKTVTISCAGNSSDVGYGNYVSWYQQFPGMAPKLLIYLVNKRASGITDRFSGSKSGNTASLTISGLQSEDEADYYCASYTGSNNIVFGGGTHLTVL
notes: as for B1

Molecular target: SEMA-PSI (MET ECD lacking IPT domains 1-4) (human) (UniProt P08581)
Assay: ELISA, engineered MET protein coated

Row | binding | Binder
1 | binds | B1
2 | binds | B2
3 | binds | B3
4 | binds | B4
5 | binds | B5
6 | binds | B6
7 | binds | B7
8 | binds | B8
9 | binds | B9
10 | binds | B10
11 | binds | B11

Molecular target: isolated SEMA domain of human MET (human) (UniProt P08581)
Assay: ELISA, engineered MET protein coated

Row | binding | Binder
12 | binds | B1
13 | binds | B2
14 | binds | B3
15 | binds | B4
16 | binds | B5
17 | binds | B8
18 | binds | B10

Molecular target: SEMA-PSI-IPT 1-2 (MET ECD lacking IPT domains 3 and 4) (human) (UniProt P08581)
Assay: ELISA, engineered MET protein coated

Row | binding | Binder
19 | binds | B1
20 | binds | B2
21 | binds | B3
22 | binds | B4
23 | binds | B5
24 | binds | B6
25 | binds | B7
26 | binds | B8
27 | binds | B9
28 | binds | B10
29 | binds | B11
